Data reported in paper PMC4847777.
For at least one entry, the source does not settle the construct or the ends of the probe. Negatives hold for the conditions tested. Tags and fusion partners may be left off the protein sequences shown. Weaker means in comparison with the reference protein, sequence or condition of that experiment.

Target: T1, RamA (His6-RamA) (UniProt Q8NML3)
T1 sequence (looked up, limits assumed): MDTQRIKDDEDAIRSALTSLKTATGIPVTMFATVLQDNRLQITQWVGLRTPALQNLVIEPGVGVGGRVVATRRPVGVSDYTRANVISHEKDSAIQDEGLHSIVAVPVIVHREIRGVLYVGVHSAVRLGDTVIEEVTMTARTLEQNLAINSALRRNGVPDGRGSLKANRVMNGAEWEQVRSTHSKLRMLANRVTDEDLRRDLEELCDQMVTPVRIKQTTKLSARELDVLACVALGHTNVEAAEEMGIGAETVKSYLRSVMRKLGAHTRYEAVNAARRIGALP
Test: EMSA
Settings: poly[d(I-C)], 10 mM Tris, 1 mM dithioerythritol, 1 mM EDTA, 1 ug poly[d(I-C)], 10% glycerol, about 70 ng DNA, 20 min at room temperature, pH not stated, recombinant protein, protein details: His6 (pET28-ramA), probe letters rebuilt from the primers and the genome

## ACGCGAGCAGCGCCTCCACCGTATCCGGCACCTCGCCGGCATGCTTTTCGACGATCACCTCCGCACATTCCTTCAACCTCAGCGCCCTACGTGGATAGCCCAACTTGCCCCACGACCGCAAAATCTCATCGGTGCTCGCATTCGCGAAATCTTCCGGAGTGGGCCATTTTTCCATCCACTCACGCCAAATCGGCTCGACTCGCGCGACGGGAGTTTGTTGGCTCATCACCTCTGAAAGGAGAATTCCCCATGCTGAAGTATTGGGATCACGCCACGCAAGATCGCGGGCATTTGCTCTAAACCACACGAGCAGGGCTGTTTGAAAAGCTGTAAATGACATGACCTAAATGATTGTACTGACTGGCACTTTAGGTCATATGTCACACCGAGTGGAATAATAAAGCTTATGCCTTTGCGTAATGTTGAGGTACCCCG (double strand) [PF1]
Less retardation with 2 ug RamA, 20 ul
  binding result: binds more weakly

## CGGGGTACCTCAACATTACGCAAAGGCATAAGCTTTATTATTCCACTCGGTGTGACATATGACCTAAAGTGCCAGTCAGTACAATCATTTAGGTCATGTCATTTACAGCTTTTCAAACAGCCCTGCTCGTGTGGTTTAGAGCAAATGCCCGCGATCTTGCGTGGCGTGATCCCAATACTTCAGCATGGGGAATTCTCCTTTCAGAGGTGATGAGCCAACAAACTCCCGTCGCGCGAGTCGAGCCGATTTGGCGTGAGTGGATGGAAAAATGGCCCACTCCGGAAGATTTCGCGAATGCGAGCACCGATGAGATTTTGCGG (double strand) [PF2]
No significant retardation up to 2 ug RamA, 20 ul
  binding result: no binding

## CGGGGTACCTCAACATTACGCAAAGGCATAAGCTTTATTATTCCACTCGGTGTGACATATGACCTAAAGTGCCAGTCAGTACAATCATTTAGGTCATGTCATTTACAGCTTTTCAAACAGCCCTGCTCGTGTGGTTTAGAGCAAATGCCCGCGATCTTGCGTGGCGTGATCCCAATACTTCAGCATGGGGAATTCTCCTTTCAGAGGTGATGAGCCAACAAACTCCCGTCGCGCGAGTCGAGCCGATTTGGCGTGAGTGGATGGAAAAATGGCCCACTCCGGAAGATTTCGCGAATGCGAGCACCGATGAGATTTTGCGGTCGTGGGGCAAGTTGGGCTATCCACGTAGGGCGCTGAGGTTGAAGGAATGTGCGGAGGTGATCGTCGAAAAGCATGCCGGCGAGGTGCCGGATACGGTGGAGGCGCTGCTCGCGTTGCCGGGGATCGGTGATTACACGGCGCGCGCGGTCGCGGCGTTTCATTTTGGGCAGCGCGTGCCGGTGGTCGATACGAACGTGCGTCGCGTGTAGTCGACGCGT (double strand) [Pbca (bca promoter fragment)]
0.8-2 ug RamA in 20 ul
  binding result: binds
